Taken from: PubChem BioAssay AID1159578 (Peter MacCallum Cancer Centre, 2015)
Here is one part, drawn at random, of about 18,000 deposited reagents. Of all reagents, about 1,030 (5.7%) were called active. 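Inactive calls also include pools with fewer than 3300 nuclei, whose migration was not assessed.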 Raw values vary from plate to plate and are shown uncorrected. Reagent sequences are not shown.

Purpose: 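Genome-wide hunt for genes controlling movement of lymphatic endothelial cells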 (primary screen)
Cells: human lymphatic endothelial cells
Reagent: siRNA pool against human genes, 40 nM
Time to read-out: 48 h after transfection
Measurement: 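High-content imaging of dye-stained cells in a scratch assay measures filled wound area and nuclei per well; duplicate means given as ratio to mock and robust z-score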
Scale: migration robust z-score: higher = faster migration into the scratch; migration relative to mock: higher = more scratch area covered than mock; nuclei per well: higher = more cells in the well
Active means: 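Migration changed when robust z exceeds 2 or falls below -2 and mean nuclei number is at least 3300; otherwise not called changed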
Meaning of the calls: active = migration changed; inactive = no migration change, or too few cells

no.	Target gene	migration robust z-score	migration class with cell-count check	migration relative to mock	nuclei per well, duplicate mean	activity call
1	NEK3	-3.81	under 3300 nuclei; migration not judged	0.07	2828	inactive
2	ZMIZ2	-1.26	migration z between -2 and 2; enough cells	0.56	5856	inactive
3	ZNF137P	-0.23	migration z between -2 and 2; enough cells	0.82	5854	inactive
4	MME	0.46	migration z between -2 and 2; enough cells	0.9	5700	inactive
5	TTC31	-0.44	migration z between -2 and 2; enough cells	0.77	6216	inactive
6	RYBP	-1.34	migration z between -2 and 2; enough cells	0.54	5814	inactive
7	MCRIP2	0.26	migration z between -2 and 2; enough cells	0.95	5854	inactive
8	RYR2	-0.13	migration z between -2 and 2; enough cells	0.78	5980	inactive
9	LRRC8A	-0.28	under 3300 nuclei; migration not judged	0.81	3292	inactive
10	SGK1	0.31	migration z between -2 and 2; enough cells	0.86	6441	inactive
11	MAN2A1	-0.28	migration z between -2 and 2; enough cells	0.75	5724	inactive
12	SRRM1	1.24	migration z between -2 and 2; enough cells	1.21	5418	inactive
13	TBX4	-0.05	migration z between -2 and 2; enough cells	0.8	4004	inactive
14	BCL9	1.01	migration z between -2 and 2; enough cells	1.16	6262	inactive
15	BTK	-4.67	migration z below -2; enough cells	-0.1	3694	active
16	HSD17B4	-0.24	migration z between -2 and 2; enough cells	0.82	6744	inactive
17	AMD1	-0.05	migration z between -2 and 2; enough cells	0.8	5806	inactive
18	ZNF91	-1.38	migration z between -2 and 2; enough cells	0.52	5976	inactive
19	FBXW9	-0.68	migration z between -2 and 2; enough cells	0.68	3814	inactive
20	PRY	-4.31	under 3300 nuclei; migration not judged	-0.24	2124	inactive
21	RPL13A	-0.25	migration z between -2 and 2; enough cells	0.82	5066	inactive
22	KLHL15	0.66	migration z between -2 and 2; enough cells	1.06	4473	inactive
23	ATF4	-1.46	migration z between -2 and 2; enough cells	0.52	4985	inactive
24	FIBCD1	-1.14	migration z between -2 and 2; enough cells	0.59	4495	inactive
25	GPX6	0.03	migration z between -2 and 2; enough cells	0.81	5806	inactive
26	SH3RF3	-1.48	migration z between -2 and 2; enough cells	0.52	5302	inactive
27	USO1	-1.15	migration z between -2 and 2; enough cells	0.58	5304	inactive
28	PPP1R15A	2.38	migration z above 2; enough cells	1.5	6199	active
29	BLMH	-0.08	migration z between -2 and 2; enough cells	0.79	5360	inactive
30	WNT1	0.22	migration z between -2 and 2; enough cells	0.94	4910	inactive
31	TAPBP	-1.98	migration z between -2 and 2; enough cells	0.43	3792	inactive
32	NUDT9	-0.29	migration z between -2 and 2; enough cells	0.75	5606	inactive
33	UTP18	-0.55	migration z between -2 and 2; enough cells	0.74	5322	inactive
34	CEACAM21	0.18	migration z between -2 and 2; enough cells	0.93	6568	inactive
35	FBLIM1	0.32	migration z between -2 and 2; enough cells	0.97	6328	inactive
36	DIS3L2	2.23	migration z above 2; enough cells	1.24	5926	active
37	SNX5	0.29	migration z between -2 and 2; enough cells	0.86	6262	inactive
38	HJV	0.46	migration z between -2 and 2; enough cells	1	5820	inactive
39	OR13G1	-0.89	migration z between -2 and 2; enough cells	0.66	5833	inactive
40	TBC1D31	1.28	migration z between -2 and 2; enough cells	1.22	6190	inactive
41	LEFTY1	-0.04	migration z between -2 and 2; enough cells	0.88	6483	inactive
42	HYAL2	-1.19	migration z between -2 and 2; enough cells	0.57	5048	inactive
43	SDHAF4	-1.15	migration z between -2 and 2; enough cells	0.58	6196	inactive
44	LILRA3	0.8	migration z between -2 and 2; enough cells	1.1	7070	inactive
45	LRRC8B	-0.7	migration z between -2 and 2; enough cells	0.7	6960	inactive
46	HIVEP3	-0.08	migration z between -2 and 2; enough cells	0.79	5676	inactive
47	TAS2R4	1.5	migration z between -2 and 2; enough cells	1.27	6513	inactive
48	AP3S2	-1.18	migration z between -2 and 2; enough cells	0.57	5040	inactive
49	PILRB	0.8	migration z between -2 and 2; enough cells	1.09	6392	inactive
50	RGL2	0.1	migration z between -2 and 2; enough cells	0.92	5964	inactive
51	WDSUB1	0.96	migration z between -2 and 2; enough cells	0.99	5966	inactive
52	POU4F3	-0.06	migration z between -2 and 2; enough cells	0.87	7891	inactive
53	KMO	0	migration z between -2 and 2; enough cells	0.8	6266	inactive
54	PAXBP1	-2.34	migration z below -2; enough cells	0.28	5606	active
55	C6orf62	0.6	migration z between -2 and 2; enough cells	1.04	6096	inactive
56	POLR2K	0.44	migration z between -2 and 2; enough cells	0.89	5692	inactive
57	NLRC4	-0.21	migration z between -2 and 2; enough cells	0.76	4686	inactive
